Experimental data as given in the supplement of paper PMC4635364.
“And” between values parts separate entries of the source, which are not always exact repeats. Equal entries are not always repeated. Structures can show the parent of a compound that is named as a salt. This is one part of the list. Single values are uncertain here, since repeats match poorly.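 Human fetal ventral-midbrain neural progenitor line ReNCell VM, differentiated without mitogens. Images stained for doublecortin (early neurons) or tyrosine hydroxylase (dopaminergic neurons) were scored by blinded raters against untreated wells (0 = no change). Repeats and both raters were averaged, and compounds averaging 2 or higher were picked as hits for retesting.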

Tests used:
ReNCell VM [1] = assay: neuronal differentiation score (DCX+ cell fraction vs untreated, manual image score) (score (-3 to 3)); higher = more neuronal differentiation; details: 2 uM, 2 weeks
ReNCell VM [2] = assay: dopaminergic neuron differentiation score (TH+ cell fraction vs untreated, manual image score) (score (0 to 3)); higher = more TH+ dopaminergic neuron differentiation; details: 2 uM, 4 weeks, BDNF 10 ng/ml + GDNF 10 ng/ml

COc1ccc(C(=O)c2ccc(C)cc2)c(O)c1
neuronal differentiation score (ReNCell VM [1]; library: Spectrum): inactive: 0
dopaminergic neuron differentiation score (ReNCell VM [2]; library: Spectrum): inactive: 0

Cc1ncc([N+](=O)[O-])n1CC(C)O (stereo not drawn) [Secnidazole]
neuronal differentiation score (ReNCell VM [1]; library: Prestwick): inactive: 0
dopaminergic neuron differentiation score (ReNCell VM [2]; library: Prestwick): inactive: 1

CO/N=C(\C(=O)N[C@@H]1C(=O)N2C(C(=O)O)=C(C[N+]3(C)CCCC3)CS[C@H]12)c1csc(N)n1
neuronal differentiation score (ReNCell VM [1]; library: Spectrum): inactive: 0
dopaminergic neuron differentiation score (ReNCell VM [2]; library: Spectrum): inactive: 0

C=CC[C@@H]1/C=C(\C)C[C@H](C)C[C@H](OC)[C@H]2O[C@@](O)(C(=O)C(=O)N3CCCC[C@H]3C(=O)O[C@H](/C(C)=C/[C@@H]3CC[C@@H](O)[C@H](OC)C3)[C@H](C)[C@@H](O)CC1=O)[C@H](C)C[C@@H]2OC
neuronal differentiation score (ReNCell VM [1]; library: Spectrum): inactive: 1
dopaminergic neuron differentiation score (ReNCell VM [2]; library: Spectrum): inactive: 0

C=C[C@](C)(O)CC[C@@H]1[C@@]2(C)CCCC(C)(C)[C@@H]2CC[C@@]1(C)O
neuronal differentiation score (ReNCell VM [1]; library: Spectrum): inactive: 0
dopaminergic neuron differentiation score (ReNCell VM [2]; library: Spectrum): inactive: 0

CN(C)CCC(c1ccc(Cl)cc1)c1ccccn1 (stereo not drawn) [Chlorpheniramine maleate]
neuronal differentiation score (ReNCell VM [1]; library: Prestwick): inactive: 0
dopaminergic neuron differentiation score (ReNCell VM [2]; library: Prestwick): inactive: 0

CN1Cc2c(N)cccc2C(c2ccccc2)C1 (stereo not drawn)
neuronal differentiation score (ReNCell VM [1]; library: Spectrum): inactive: 0
dopaminergic neuron differentiation score (ReNCell VM [2]; library: Spectrum): inactive: 0

CCCNC(C)C(=O)Nc1ccccc1C (stereo not drawn)
neuronal differentiation score (ReNCell VM [1]; library: Spectrum): inactive: 0
dopaminergic neuron differentiation score (ReNCell VM [2]; library: Spectrum): inactive: 0

COc1ccc2c3c1O[C@H]1C[C@@H](O)C=C[C@@]31CCN(C)C2
neuronal differentiation score (ReNCell VM [1]; library: Spectrum): inactive: 0
dopaminergic neuron differentiation score (ReNCell VM [2]; library: Spectrum): inactive: 0

O=C(N[C@H](CO)[C@H](O)c1ccc([N+](=O)[O-])cc1)C(Cl)Cl [Chloramphenicol]
neuronal differentiation score (ReNCell VM [1]; library: Prestwick): inactive: 0
dopaminergic neuron differentiation score (ReNCell VM [2]; library: Prestwick): inactive: 0

CCC(=O)OCC(=O)[C@@]1(OC(=O)CC)[C@@H](C)C[C@H]2[C@@H]3CCC4=CC(=O)C=C[C@]4(C)[C@@]3(F)[C@@H](O)C[C@@]21C
neuronal differentiation score (ReNCell VM [1]; library: Spectrum): inactive: 0
dopaminergic neuron differentiation score (ReNCell VM [2]; library: Spectrum): inactive: 0

CC(C)(CO)[C@@H](O)C(=O)NCCCO
neuronal differentiation score (ReNCell VM [1]; library: Spectrum): inactive: 0
dopaminergic neuron differentiation score (ReNCell VM [2]; library: Spectrum): inactive: 0

COc1ccc(NC(=O)c2ccc(-c3ccc(-c4noc(C)n4)cc3C)cc2)cc1OCCN(C)C
neuronal differentiation score (ReNCell VM [1]; library: Tocriscreen): inactive: 0
dopaminergic neuron differentiation score (ReNCell VM [2]; library: Tocriscreen): inactive: 0

CC(=O)Oc1ccc(C(c2ccc(OC(C)=O)cc2)c2ccccn2)cc1 [Bisacodyl]
neuronal differentiation score (ReNCell VM [1]; library: Prestwick): inactive: 0
dopaminergic neuron differentiation score (ReNCell VM [2]; library: Prestwick): inactive: 0

CC[C@H](CO)Nc1nc(NCc2ccccc2)c2ncn(C(C)C)c2n1 [Roscovitine]
neuronal differentiation score (ReNCell VM [1]; library: LOPAC): inactive: 1
dopaminergic neuron differentiation score (ReNCell VM [2]; library: LOPAC): inactive: 0

O=C1Nc2ccccc2C1=O [Isatine]
neuronal differentiation score (ReNCell VM [1]; library: Phytochemical): inactive: 0
dopaminergic neuron differentiation score (ReNCell VM [2]; library: Phytochemical): inactive: 0

CCCOc1ccc(Br)cc1-c1cc(-c2ccc(Cl)cc2)[nH]c1-c1ccncc1
neuronal differentiation score (ReNCell VM [1]; library: Tocriscreen): inactive: 0
dopaminergic neuron differentiation score (ReNCell VM [2]; library: Tocriscreen): inactive: 0

CC(=O)O[C@H]1C[C@@H]2CC[C@@H]3[C@H](CC[C@@]4(C)[C@H]3C[C@H]([N+]3(C)CCCCC3)[C@@H]4OC(C)=O)[C@@]2(C)C[C@@H]1N1CCCCC1 [Vecuronium bromide]
neuronal differentiation score (ReNCell VM [1]; library: Prestwick): inactive: 0
dopaminergic neuron differentiation score (ReNCell VM [2]; library: Prestwick): inactive: 0

C[S+]([O-])c1ccc(-c2nc(-c3ccc(F)cc3)c(-c3ccncc3)[nH]2)cc1 (stereo not drawn)
neuronal differentiation score (ReNCell VM [1]; library: Tocriscreen): active: 3 and inactive: 1
dopaminergic neuron differentiation score (ReNCell VM [2]; library: Tocriscreen): inactive: 0

CC(=O)Oc1ccc2c(c1C(C)C)CCC1C(C)(C)CCC[C@]21C (stereo partly drawn)
neuronal differentiation score (ReNCell VM [1]; library: Spectrum): inactive: 0
dopaminergic neuron differentiation score (ReNCell VM [2]; library: Spectrum): inactive: 0

CCN(CC)CCCC(C)Nc1ccnc2cc(Cl)ccc12 (stereo not drawn)
neuronal differentiation score (ReNCell VM [1]; library: Spectrum): inactive: 0
dopaminergic neuron differentiation score (ReNCell VM [2]; library: Spectrum): inactive: 0

CS(=O)(=O)OCCCCOS(C)(=O)=O
neuronal differentiation score (ReNCell VM [1]; library: Spectrum): inactive: 0
dopaminergic neuron differentiation score (ReNCell VM [2]; library: Spectrum): inactive: 0

CN1CCN(C(c2ccccc2)c2ccc(Cl)cc2)CC1 (stereo not drawn) [Chlorcyclizine hydrochloride]
neuronal differentiation score (ReNCell VM [1]; library: Prestwick): inactive: 0
dopaminergic neuron differentiation score (ReNCell VM [2]; library: Prestwick): inactive: 0

OC[C@@H](O)[C@@H](O)[C@H](O)[C@@H](O)CO
neuronal differentiation score (ReNCell VM [1]; library: Spectrum): inactive: 0
dopaminergic neuron differentiation score (ReNCell VM [2]; library: Spectrum): inactive: 0

Cc1ccc(S(=O)(=O)N[C@@H](Cc2ccccc2)C(=O)CCl)cc1 [N-p-Tosyl-L-phenylalanine chloromethyl ketone]
neuronal differentiation score (ReNCell VM [1]; library: LOPAC): inactive: 0
dopaminergic neuron differentiation score (ReNCell VM [2]; library: LOPAC): inactive: 0

COc1ccccc1OCC(O)CN1CCN(CC(=O)Nc2c(C)cccc2C)CC1 (stereo not drawn)
neuronal differentiation score (ReNCell VM [1]; library: Spectrum): inactive: 0
dopaminergic neuron differentiation score (ReNCell VM [2]; library: Spectrum): inactive: 0

Cc1ccc(S(=O)(=O)NC(=O)NN2CC3CCCC3C2)cc1 (stereo not drawn)
neuronal differentiation score (ReNCell VM [1]; library: Spectrum): inactive: 0
dopaminergic neuron differentiation score (ReNCell VM [2]; library: Spectrum): inactive: 1

Cc1ccc(S(=O)(=O)NC(=O)NN2CCCCCC2)cc1
neuronal differentiation score (ReNCell VM [1]; library: Spectrum): inactive: 0
dopaminergic neuron differentiation score (ReNCell VM [2]; library: Spectrum): inactive: 0

COC(=O)[C@H]1[C@H]2C[C@@H]3c4[nH]c5cc(OC)ccc5c4CCN3C[C@H]2C[C@@H](OC(=O)/C=C/c2cc(OC)c(OC)c(OC)c2)[C@@H]1OC [reserpinine]
neuronal differentiation score (ReNCell VM [1]; library: Natural): inactive: 0
dopaminergic neuron differentiation score (ReNCell VM [2]; library: Natural): inactive: 0
